Source: PubChem BioAssay AID2685 (National Center for Advancing Translational Sciences (NCATS), 2010)
Among all 320,000 compounds or so, about 2,100 (0.66%) were called active. Inconclusive results, whose numbers are uncertain, are shown with a selection of clear calls. Calls follow the shape of the dose curve; as a rule, active = well fitted inhibition curve with a large enough effect in the signal ratio, with a control signal flat (not every such curve was filed as active); inconclusive = small, poorly fitted or top-dose-only effect, or effect the other way, or a change in a side signal; inactive = flat fitted curve, though single readings scatter; the % refers to the signal ratio. A potency beside an inconclusive call is a rough fit, not a confirmed value.

Test: qHTS Assay for Lipid Storage Modulators in Drosophila S3 Cells
Settings: BODIPY lipid droplet fluorescence, 18-24 h, cells fed with added oleic acid; lipid storage change, negative = inhibition: at 46.1 µM (top of the series) unless noted
In short: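 Drosophila S3 cells got compounds at several concentrations plus oleic acid (400 uM solution). Laser-scanning cytometry with 488 nm excitation read lipid droplets at 500-530 nm and cells at 575-640 nm. Percent activity was relative to 20 uM Triacsin C.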
% is scaled to controls: 0 for no effect and ±100 for the full control effect; potency is read from the fitted curve at half-maximal effect.

Potency, inconclusive:
O=C1N(Cc2cccc(Cl)c2)C[C@@H]2C[C@@H](c3c[nH]c4ccccc34)N3CCC[C@@]123 23.1 µM [falling, single point]
Cc1onc(-c2ccccc2)c1C(=O)NC(C)c1ccc2c(c1)OCO2 (configuration not stated) 29.1 µM [falling, single point]
Fc1ccccc1-c1nc2nc3ccccc3nc2n1CC1CCCO1 (configuration not stated) 20.6 µM [activator, single point]
O=C(NCC(c1ccco1)N1CCN(c2ccc(F)cc2)CC1)c1ccco1 (configuration not stated) 8.2 µM [activator, partial curve]
COc1cc2c(cc1OC)CN(C(=O)Cn1ccccc1=O)CC2 29.1 µM [falling, single point]
COc1ccc(COC(=O)N/N=C/c2cccs2)cc1 6.51 µM [activator, partial curve, poor fit]
Cc1nn(CC(=O)Nc2ccc3c(c2)CCC3)c(C)c1[N+](=O)[O-] 0.366 µM [activator, partial curve]
C=CCN=C1N[C@@H](c2cccc(C(F)(F)F)c2)C(C(=O)OC)=C(C)N1CC 29.1 µM [activator, single point]
CCCCn1c(N)c(N(CC)C(=O)c2ccc(C#N)cc2)c(=O)[nH]c1=O 2.06 µM [falling, partial curve]
COC(=O)C1=C(C)NC(=S)NC1/C=C/c1ccccc1 (configuration not stated) 9.2 µM [activator, single point]
O=C(CSc1nnnn1Cc1ccccc1)c1ccccc1 16.4 µM [falling, single point]
COc1ccc(OCC(O)CN(CC(O)COc2ccc(OC)cc2)c2cccc(O)c2)cc1 (configuration not stated) 0.259 µM [falling, partial curve, poor fit]
CCOC(=O)CN1CC23C=CC(O2)C(C(=O)Nc2ccc(F)cc2)C3C1=O (configuration not stated) 0.411 µM [falling, partial curve, poor fit]
CC(=O)CCc1oc2ccc(NC(C)=O)cc2c1-c1ccc(C)o1 14.6 µM [falling, partial curve, poor fit]
CCOC(=O)C1CCN(C(=O)Cn2nc(C)n3c(cc4cc(F)ccc43)c2=O)CC1 1.84 µM [falling, partial curve, poor fit]
O=C(NN1C(=O)C2C3C=CC([C@@H]2C1=O)C31CC1)c1ccccc1 (some centres not stated) 0.82 µM [activator, single point]
CCOc1cc2[nH]c(=O)n(CCCCC(=O)N3CCCCCC3)c(=O)c2cc1OCC 3.26 µM [falling, single point]
COc1cc(C(=S)N2CCOCC2)cc(OC)c1OS(=O)(=O)c1ccc(C)cc1 6.51 µM [falling, single point]
CCOC(=O)c1c(-c2ccc(F)cc2)csc1NC(=O)c1c(-c2ccccc2)noc1C 20.6 µM [falling, single point]
CCOc1cccc(CNc2nnnn2C)c1 29.1 µM [activator, single point]
O=C(COc1ccc2c3c(c(=O)oc2c1)CCC3)NCc1ccncc1 18.4 µM [activator, single point]

Three structures from above, sorted by heavy-atom count, low to high:
Potency, inconclusive:
Fc1ccccc1-c1nc2nc3ccccc3nc2n1CC1CCCO1 (configuration not stated) 20.6 µM [activator, single point]
CCOC(=O)C1CCN(C(=O)Cn2nc(C)n3c(cc4cc(F)ccc43)c2=O)CC1 1.84 µM [falling, partial curve, poor fit]
CCOC(=O)c1c(-c2ccc(F)cc2)csc1NC(=O)c1c(-c2ccccc2)noc1C 20.6 µM [falling, single point]

Next part.

Potency, active:
O=C1CCCC(=O)N1c1ccc(N2CCN(c3ccc([N+](=O)[O-])cc3)CC2)c([N+](=O)[O-])c1 20.6 µM
O=C(O)CCN=CC1=C(O)CC(c2ccccc2)CC1=O (configuration not stated) 1.03 µM

Lipid storage change, negative = inhibition, inconclusive:
CCN(CC)CCN(C(=O)c1ccc(S(=O)(=O)N(C)C2CCCCC2)cc1)c1nc2ccc(OC)cc2s1 4.33%
N#C/C(=C\c1ccc(-c2cccc([N+](=O)[O-])c2)o1)C(=O)N1CCOCC1 -5.49%
O=C(c1ccc(F)cc1)N(C(=O)c1ccc(F)cc1)c1ncccn1 -4.81%
CC(=O)c1ccc(N2CCN(CCC#N)CC2)c(F)c1 -27.9%
COc1ccccc1Nc1ncnc2ccccc12 26.4%
CCn1ncc(C2=NOC(C(=O)Nc3c(C)nn(Cc4ccc(F)cc4)c3C)C2)c1C (configuration not stated) 7.73%
CC(=O)Nc1ccc(OC(=O)c2ccc(Br)c([N+](=O)[O-])c2)cc1 -6.85%
CCOC(=O)C1=C(O)CSC1=Nc1ccc(Cl)cc1 65.5%
O=C(Nc1cccc2ccccc12)c1ccc([N+](=O)[O-])cc1 -11.3%
O=c1c2c3c(sc2nc(N2CCNCC2)n1CCc1ccccc1)CCCCC3 10.7%
CN(C)c1ccc(/C=N/NC(=O)CCc2c[nH]c3ccccc23)cc1 -3.9%
CCOC(=O)N1CCN(C(=O)Cn2ncn3nc(-c4cccs4)cc3c2=O)CC1 21.4%
CCN(CC(=O)Nc1ccc(OC)cc1)C(=O)Cc1ccsc1 12.9%
Fc1ccc(C(Nc2ccccn2)c2c[nH]c3ccccc23)cc1 (configuration not stated) -7.77%
Cc1ccc(C(=O)O)cc1-c1ccc(/C=C2/NC(=O)N(c3ccccc3)C2=O)o1 110%
Cc1ccc(Cl)cc1N1CCN(CC(O)COC(C)C)CC1 (configuration not stated) 22.2%
O=C(O)CC/C(=N/NC(=O)c1cccs1)c1ccccc1 -1.32%
CCCc1ccc2oc(C(=O)N3CCNC(=O)C3CC(=O)OC)c(C)c2c1 (configuration not stated) -10.2%
COc1ccc(OCc2cccc(C(=O)NN)c2)cc1 33.5%
COCCOC(=O)C1=C(C)NC(=O)NC1c1c(OC)ncnc1OC (configuration not stated) -14.3%
Cc1ccc2c(CN3CCN(S(=O)(=O)c4ccccc4C(F)(F)F)CC3)cc(=O)oc2c1 -32.4%
COc1ccccc1CC(=O)NCCc1ccccc1 17.7%
Cc1ccc(NC(=O)COC(=O)c2ccc(S(=O)(=O)NCc3ccco3)cc2)cc1 9.68%
Nc1ncnc2c1ncn2CCN1CCOCC1 4.22%
CCOc1ccc(S(=O)(=O)Nc2cc(SCC(=O)O)c(O)c3ccccc23)cc1 -12.9%
Cc1cc(C)c(S(=O)(=O)N2CCN(C(=O)c3ccc4c(c3)OCO4)CC2)c(C)c1 225%
O=C(CSc1ccc(-c2ccc(Br)cc2)nn1)N1CCOCC1 -1.52%
Cc1onc(-c2c(Cl)cccc2Cl)c1C(=O)Nc1ccc(C(N)=O)cc1 40.2%
COc1ccc2[nH]c3c(c2c1)CCN1C(=O)N([C@@H](C)C(=O)NCc2ccccc2)C(=O)[C@]31C 33%
C=CCN(C(=O)CCC(=O)Nc1cc(C)on1)C(C(=O)NC(C)(C)C)c1cccc(OC)c1OC (configuration not stated) -35.8%
Cc1ccc(S(=O)(=O)NC(C(=O)N2CCOCCOCCOCC2)c2ccccc2)cc1 (configuration not stated) -12.8%
CCCCCc1c(C)[nH]c2nc3ccccc3n2c1=O -48.8%
COc1ccc(N2CCN(C(=O)c3ccc(-n4nc(C)cc4C)cc3)CC2)cc1 10.8%
Cc1cccc(NC(=O)CSCC(=O)Nc2cc(S(=O)(=O)N3CCOCC3)ccc2N2CCCC2)c1 -4.38%
CC1CCCN(c2ccc(/C=C(\C#N)c3nn(-c4ccccc4)c(N)c3C#N)cc2[N+](=O)[O-])C1 (configuration not stated) -9.39%
COc1ccc(NC(=O)CCC(=O)c2cccs2)cc1S(=O)(=O)Nc1ccccc1Cl 0.511%
Cc1nc2ccc(NC(=O)c3cncc(Br)c3)cc2s1 19.4%
CC(=O)c1ccc(S(=O)(=O)NCCC(=O)OC(C)C(=O)Nc2ccc(F)cc2)cc1 (configuration not stated) 2.94%
CC(C)c1ccc(CCNC(=O)CSC(=S)N2CCCC2)cc1
Cc1ccc(C)c(S(=O)(=O)N2CCN(C(=O)Cc3ccccc3)CC2)c1 -20.4%
CC(C(=O)NCc1cccs1)N1C(=O)c2ccccc2C1=O (configuration not stated) 59.7%
COc1ccccc1N1CCN(c2ncnc3c2oc2ccccc23)CC1 29.3%
CCNc1nc(OCCNC(C)=O)nc(N(C)C)n1 -8.72%
Cc1cc2nc3c(c(C(F)(F)F)n2n1)CCCC3 23.7%
CC1CN(S(=O)(=O)c2cc(C(=O)N(CCc3ccccc3)Cc3ccccc3)ccc2Cl)CC(C)O1 (configuration not stated) -94%
CCC1c2ccc(C)n2CCN1C(=O)Nc1ccc(F)cc1 (configuration not stated) -16.1%
Cc1ccc(C(=O)NCCN(C)C)cc1C -148%
O=C(N/N=C/c1c(O)n(-c2ccc(Cl)cn2)c(=O)c2ccccc12)c1ccncc1 37.1%
O=C(Nc1ccc(Cl)cc1F)c1ccc(COc2c(F)c(F)c(F)c(F)c2F)o1 11.7%
Cc1cc(=O)n2c3c(cccc13)CCC2 9.92%
CC(=O)c1cccc(NC(=O)Cc2cccs2)c1 -14.3%

Reprinted at random: 3 records from the list
Lipid storage change, negative = inhibition, inconclusive:
Nc1ncnc2c1ncn2CCN1CCOCC1 4.22%
O=C(N/N=C/c1c(O)n(-c2ccc(Cl)cn2)c(=O)c2ccccc12)c1ccncc1 37.1%
CCCc1ccc2oc(C(=O)N3CCNC(=O)C3CC(=O)OC)c(C)c2c1 (configuration not stated) -10.2%

Next part.

Lipid storage change, negative = inhibition, inactive:
CCCN1C(=O)S/C(=C\c2ccc(N3CCOCC3)cc2C)C1=O -5.29%
Cc1nnc(N/N=C/c2ccco2)n1N -2.72%
Cc1ccc(S(=O)(=O)NC(CC(=O)O)c2ccc(F)cc2)cc1 (configuration not stated) -0.309%
